The values below come from PMC6943125.

Results are given in words; binding and its absence hold for the method and conditions named. Binding seen in cells or lysates may run through a third protein. Tags and fused reporters may be left off the sequences shown.

This assay concerns the target T1, GST-DHX30 (human) (UniProt Q7L2E3).
T1 sequence: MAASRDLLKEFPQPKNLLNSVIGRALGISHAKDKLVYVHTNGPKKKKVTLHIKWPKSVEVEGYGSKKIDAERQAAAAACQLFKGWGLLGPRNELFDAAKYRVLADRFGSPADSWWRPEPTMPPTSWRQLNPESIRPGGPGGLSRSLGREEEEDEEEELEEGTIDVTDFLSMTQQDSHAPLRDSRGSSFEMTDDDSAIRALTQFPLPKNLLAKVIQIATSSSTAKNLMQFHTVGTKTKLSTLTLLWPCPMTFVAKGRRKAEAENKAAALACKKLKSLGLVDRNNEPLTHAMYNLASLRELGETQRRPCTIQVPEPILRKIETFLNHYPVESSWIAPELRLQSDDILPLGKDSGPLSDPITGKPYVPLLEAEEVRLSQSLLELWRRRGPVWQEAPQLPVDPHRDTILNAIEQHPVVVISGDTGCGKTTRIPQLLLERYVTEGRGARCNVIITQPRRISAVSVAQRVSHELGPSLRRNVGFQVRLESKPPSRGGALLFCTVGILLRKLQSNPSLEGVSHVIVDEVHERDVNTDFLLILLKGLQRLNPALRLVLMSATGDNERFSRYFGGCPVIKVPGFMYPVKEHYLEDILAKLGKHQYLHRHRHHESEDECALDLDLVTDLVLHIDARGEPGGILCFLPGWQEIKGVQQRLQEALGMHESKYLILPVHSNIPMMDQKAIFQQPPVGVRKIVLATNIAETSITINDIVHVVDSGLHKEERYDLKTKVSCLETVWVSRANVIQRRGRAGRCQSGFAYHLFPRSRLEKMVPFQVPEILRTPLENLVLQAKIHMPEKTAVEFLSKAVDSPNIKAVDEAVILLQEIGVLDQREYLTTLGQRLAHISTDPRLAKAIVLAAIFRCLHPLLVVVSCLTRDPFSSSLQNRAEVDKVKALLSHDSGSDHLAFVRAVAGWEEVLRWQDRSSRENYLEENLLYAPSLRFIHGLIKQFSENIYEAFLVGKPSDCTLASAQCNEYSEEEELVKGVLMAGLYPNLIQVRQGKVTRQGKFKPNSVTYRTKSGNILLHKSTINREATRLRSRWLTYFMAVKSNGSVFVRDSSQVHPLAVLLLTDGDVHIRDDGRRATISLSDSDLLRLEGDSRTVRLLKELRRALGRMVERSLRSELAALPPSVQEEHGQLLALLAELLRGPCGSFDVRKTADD
The assay can be described thus: pull-down.

For “HA (hemagglutinin) of Ud virus (influenza A virus (Ud virus))”, the binding entry is given as “no binding”.
